Test results reported in paper PMC5444833.
No constants are given. Whether binding was seen depends on the method and setting. In cells and extracts the contact can be indirect. Some entries that bind do so weakly or less than the wild type.

By UniProt entry, the sequences of proteins in these tests, tags left out.
UniProt Q96EB6: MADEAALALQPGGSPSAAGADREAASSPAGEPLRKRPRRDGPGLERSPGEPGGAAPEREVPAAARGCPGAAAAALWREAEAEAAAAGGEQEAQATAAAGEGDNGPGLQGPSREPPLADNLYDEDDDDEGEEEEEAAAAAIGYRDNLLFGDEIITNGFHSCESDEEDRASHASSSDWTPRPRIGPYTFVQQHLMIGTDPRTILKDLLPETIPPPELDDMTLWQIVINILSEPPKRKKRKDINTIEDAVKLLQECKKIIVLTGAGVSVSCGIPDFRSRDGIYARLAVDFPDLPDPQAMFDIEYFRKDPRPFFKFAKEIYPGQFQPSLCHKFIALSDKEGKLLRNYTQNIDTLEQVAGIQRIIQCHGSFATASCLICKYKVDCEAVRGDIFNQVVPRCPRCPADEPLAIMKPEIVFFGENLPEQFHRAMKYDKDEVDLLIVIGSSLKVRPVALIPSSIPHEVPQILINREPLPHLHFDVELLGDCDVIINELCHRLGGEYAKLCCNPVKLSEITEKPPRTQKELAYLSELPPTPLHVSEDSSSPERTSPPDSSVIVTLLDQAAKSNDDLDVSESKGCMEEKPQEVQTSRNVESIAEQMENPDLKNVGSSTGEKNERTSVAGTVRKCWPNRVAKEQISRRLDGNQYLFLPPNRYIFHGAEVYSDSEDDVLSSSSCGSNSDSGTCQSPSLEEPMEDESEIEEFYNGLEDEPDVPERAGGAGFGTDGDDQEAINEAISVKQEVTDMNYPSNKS
UniProt Q13950: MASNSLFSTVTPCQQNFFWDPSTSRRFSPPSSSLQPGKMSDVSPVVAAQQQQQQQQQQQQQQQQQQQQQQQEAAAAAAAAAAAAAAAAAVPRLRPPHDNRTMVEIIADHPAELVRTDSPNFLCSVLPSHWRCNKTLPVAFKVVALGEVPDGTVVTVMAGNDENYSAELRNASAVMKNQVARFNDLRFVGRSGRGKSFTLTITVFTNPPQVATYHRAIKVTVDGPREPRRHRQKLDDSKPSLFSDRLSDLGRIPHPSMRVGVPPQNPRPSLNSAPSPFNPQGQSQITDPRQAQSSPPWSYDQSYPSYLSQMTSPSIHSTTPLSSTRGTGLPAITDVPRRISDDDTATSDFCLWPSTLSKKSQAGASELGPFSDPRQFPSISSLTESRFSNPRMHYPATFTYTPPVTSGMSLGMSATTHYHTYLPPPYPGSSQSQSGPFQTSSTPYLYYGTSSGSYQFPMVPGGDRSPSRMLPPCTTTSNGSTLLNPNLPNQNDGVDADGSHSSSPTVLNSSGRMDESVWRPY

Biological target: FLAG-SIRT1 (UniProt Q96EB6)
Assay: co-IP; 293T cells transfected with FLAG-SIRT1, HA-RUNX2 or both, empty plasmid backbones as controls; IP and Western blot with FLAG and HA antibodies

Substance: HA-RUNX2 (from UniProt Q13950 1-521)
- binding: binds
